Test results as given in PubChem BioAssay AID808 (Columbia University Molecular Screening Center, 2007).
Out of some 93,000 compounds screened, about 180 (0.19%) were called active. This list was built around the results that the source calls inconclusive (neither active nor inactive); the mix of calls is not that of the screen.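 How the source made its calls: active means activation above the screen mean plus 3 SD, with well images confirming the hit on visual review (cut at about 28% in these data, passing the limit was not always enough); inconclusive means activation above that limit but images do not confirm it; inactive means activation not above that limit.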

Assay: enhancers of endothelial VCAM-1 upregulation by TNFa – imaging, HUVEC, TNFa stimulus, immunofluorescence, primary screen (AID 808);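 further: signal is the number of cytoplasmic VCAM-1 stained grains per positive cell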
Details: HUVEC TNFa-stimulated VCAM-1 immunofluorescence, high-content imaging; at 2 µM; hits give high values; scaled per plate to unstimulated/TNFa-only wells

Compound	activation
O=C(NCCCCNC(=O)c1cccnc1)c1cccnc1	inconclusive: 47.2%
COCCSc1ccccc1C(=O)NCC1CCCO1 (stereo not drawn)	inconclusive: 85.2%
CCCCCCc1cc2cc(C(=O)NCc3ccccc3)c(=N)oc2cc1O	active: 51.3%
O=C(CN1CCC(n2nnc3ccccc32)CC1)Nc1ccc2c(c1)CCC2	inconclusive: 61.8%
COCCOC(=O)C1=C(C)OC(N)=C(C#N)C1c1ccc2c(c1)OCO2 (stereo not drawn)	inconclusive: 48.1%
CC(=O)Nc1ccc(S(=O)(=O)NC(CC(=O)NC2CCCCC2C)C(C)C)cc1 (stereo not drawn)	active: 30.9%
COCCn1c(=S)[nH]c2ncccc2c1=O	inconclusive: 50.8%
CC(C)NC(=O)CSc1nnc(-c2ccc(C(C)(C)C)cc2)n1C	inconclusive: 42.3%
Cc1ccc(OC(=O)CCC(=O)OCCCC(F)(F)C(F)(F)F)cc1	inconclusive: 40.2%
O=C(Nc1ccc(N2CCN(C(=O)c3ccco3)CC2)c(Cl)c1)c1cc2ccccc2o1	inconclusive: 40.1%
CCN(CC)C(=O)CSc1nc(-c2cccs2)cc(-c2cccs2)c1C#N	active: 49.9%
O=C(NCc1ccco1)c1ccc(S(=O)(=O)c2cccc(S(=O)(=O)N3CCOCC3)c2)cc1	inconclusive: 49.3%
CN(C)C(CNc1nnnn1-c1ccccc1)c1ccco1 (stereo not drawn)	inconclusive: 54.7%
O=C1C=C(O)CC(c2ccc(Cl)c(Cl)c2)C1 (stereo not drawn)	inconclusive: 42.1%
O=C(CSc1nc2ccccc2[nH]1)Nc1ccccc1N1CCOCC1	active: 48.4%
CCOc1ccccc1C1CC(c2ccc(F)cc2)Nc2nc(N)nn21 (stereo not drawn)	inactive: -9.7%
O=C(c1ccc2c(c1)[nH]c(=S)n1c3ccccc3nc21)N1CCN(c2ncccn2)CC1	inactive: -1%
COc1cccc(C2C(C(C)=O)=C(O)C(=O)N2CCc2c[nH]c3ccccc23)c1 (stereo not drawn)	inactive: -1.9%
Cc1cc(Cl)ccc1NC(=O)CSc1nnc(Cc2cccs2)n1Cc1ccco1	inactive: -0.5%
O=C(CCCn1c(=O)c2ccccc2n(CC(=O)NCc2ccco2)c1=O)NCc1ccco1	inconclusive: 48.1%
Cc1cccc(NS(=O)(=O)c2ccc(C)c(C(=O)OCC(=O)Nc3cc(C)on3)c2)c1	inactive: -5.6%
CCOC(=O)c1cnc2c(-c3ccccc3)cnn2c1N	inconclusive: 40%
CCOC(=O)c1ccc(Nc2c(CC)c(C)nc3ncnn23)cc1	inconclusive: 46.3%
Clc1ccc(Oc2nc3ccccc3n3cccc23)cc1	inactive: 5.4%

Of the compounds above, 3 contain two or more sulfur atoms:
Compound	activation
CCN(CC)C(=O)CSc1nc(-c2cccs2)cc(-c2cccs2)c1C#N	active: 49.9%
O=C(NCc1ccco1)c1ccc(S(=O)(=O)c2cccc(S(=O)(=O)N3CCOCC3)c2)cc1	inconclusive: 49.3%
Cc1cc(Cl)ccc1NC(=O)CSc1nnc(Cc2cccs2)n1Cc1ccco1	inactive: -0.5%

Following part

Compound	activation
COc1ccc(-n2cnnc2SCCC#N)cc1	inconclusive: 49.2%
O=C(Nc1ccc(-c2nc3ccccc3o2)cc1)c1ccc2c(c1)OCO2	inconclusive: 40%
Cc1cccc(/C(N)=N/OC(=O)c2ccco2)c1	inactive: 2.5%
CCn1c2ccccc2c2cc(C3N=C(N)Nc4nc5ccccc5n43)ccc21 (stereo not drawn)	active: 53.6%
O=C(O)c1cccc(COCC(F)(F)C(F)F)c1	inactive: 0.3%
CCOc1nc(-c2ccccc2)ccc1-c1noc(COC)n1	inconclusive: 46.9%
CCC(CC)n1[nH]c(=O)c2c(C)cc(C)nc21	inactive: -50.5%
Cn1c2ccccc2c2c(C(=O)N3CCN(c4ccc(F)cc4)CC3)cn(C3CCCC3)c(=O)c21	inactive: -11.3%
C/C(=N\NC(=O)Cc1cccn1C)c1ccc2ccccc2c1	inconclusive: 57.6%
CCc1nnc(SCC(=O)N2CCCc3ccccc32)nc1CC	inconclusive: 41.8%
COc1ccc(Cl)cc1NC(=O)COc1cccc(-n2cnnn2)c1	inconclusive: 48%
Cc1nccn1CC(O)COC1CCCCC1 (stereo not drawn)	inconclusive: 46%
Cc1cccc2cc(C#N)c(SCCN3CCCCC3)nc12	inconclusive: 40.6%
COc1ccccc1N(CC(=O)NCCSc1ccccc1)S(C)(=O)=O	inconclusive: 43.7%
Cc1ccc(NC(=O)COC(=O)c2ccn(C)n2)cc1	inconclusive: 52.9%
COc1ccc(C(=O)c2ccc(N3CCN(C4CC(=O)NC4=O)CC3)cc2)cc1F (stereo not drawn)	inactive: -7%
CC1CCN(C(=O)Cn2c(=O)n(CCc3ccccc3)c(=O)c3ccccc32)CC1	inconclusive: 40.7%
CC12CCC(C(=O)NCCN3CCCCC3)(CC1=O)C2(C)C (stereo not drawn)	inactive: -7.7%
CN(C)c1oc(-c2cccs2)nc1C#N	inactive: 0.4%
C=CCNC(=O)CN1CCC(n2c(C)nc3cc(C(F)(F)F)ccc32)CC1	active: 58.3%
CCOC(=O)c1cccc(NC(=O)C(C)N2C(=O)c3ccccc3C2=O)c1 (stereo not drawn)	active: 36.2%
O=C(c1ccc(-c2ccccc2)cc1)N1CCN(c2ncccn2)CC1	inconclusive: 42.9%
Cn1cnnc1SCC(=O)Nc1ccccc1C(=O)NC1CC1	active: 35.8%
Cc1nc(NCc2ccccc2)[nH]c(=O)c1CCC(C)C	inconclusive: 48.3%

Structural class, the compounds so far with a CF3 group.
Compound	activation
Cc1ccc(OC(=O)CCC(=O)OCCCC(F)(F)C(F)(F)F)cc1	inconclusive: 40.2%
C=CCNC(=O)CN1CCC(n2c(C)nc3cc(C(F)(F)F)ccc32)CC1	active: 58.3%

Remaining list, next part.

Compound	activation
O=C(NC(Cc1ccccc1)C(=O)O)c1ccc(S(=O)(=O)N2CCCCC2)cc1 (stereo not drawn)	inactive: -4.1%
CC(C)(C)c1ccc(NC(=O)COC(=O)C2=COCCO2)cc1	inactive: 5.2%
Cc1ccccc1/C(N)=N/OC(=O)/C=C/c1ccccc1	active: 38%
O=S(=O)(Nc1ccc(Cc2ccncc2)cc1)c1ccc(Br)cc1	inactive: 6.5%
Cc1ccccc1-c1nnc(SCC(=O)Nc2c(C)n(C)n(-c3ccccc3)c2=O)o1	inactive: -3.6%
CCn1cc(C(=O)NCc2ccco2)c2cc(OC)c(OC)cc2c1=O	inconclusive: 47.8%
COc1cc(NC(=O)CSc2ccc3c(c2)OCCO3)cc(OC)c1OC	inactive: 8%
COc1ccc2c(c1OC)C(=O)OC2Nc1ccccn1 (stereo not drawn)	active: 53.6%
COc1ccc2c(C)cc(SCC(=O)N3CCOCC3)nc2c1	inconclusive: 140%
N#Cc1c(NC(=O)CCC(=O)O)sc2c1CCCC2	inconclusive: 40.6%
CCn1c(=O)c2cc(C(=O)Nc3cc(C)on3)sc2c2ccccc21	inactive: 2.1%
CCOc1ccc(N=C2NC(=O)S/C2=C\c2ccc(O)cc2)cc1	active: 29.2%
COc1ccc(NC(=O)c2ccc(CN3CCN(c4ccccc4)CC3)cc2)cc1OC	inconclusive: 49.8%
CC(C)C[C@H](NC(=O)OC(C)(C)C)C(=O)N/N=C/c1ccc2nccnc2c1	inactive: -0.4%
CC(=NCCCNC1CCCCC1)C1=C(O)CC(C)(C)CC1=O	inconclusive: 49.8%
COc1ccc(S(=O)(=O)N2CCN(Cc3cccc(Cl)c3)CC2)cc1	inconclusive: 44.1%
Cc1occc1C(=O)N1N=C(C2CC2)CC1(O)C(F)(F)F (stereo not drawn)	inactive: -5.6%
CCc1ccc(NC(=O)Cn2c(=O)n(CCCC(=O)NCc3ccco3)c(=O)c3ccccc32)cc1	inconclusive: 53.2%
Cc1ccc(-n2nnnc2-c2cnc(-c3cccnc3)nc2C(F)(F)F)cc1	active: 51.5%
C=CCNc1oc(-c2ccc(OC)cc2)nc1C#N	active: 44.8%
CC(C)(C)C1CCC2(CC1)C(Nc1cccc(C(F)(F)F)c1)=NC(=S)N2CC#N (stereo not drawn)	inconclusive: 46.2%
Cc1nc(Nc2ccccc2)[nH]c(=O)c1CCC(C)C	inconclusive: 52.4% [cytotoxic]
Cn1c(/C=N/n2cnnc2)nc2ccccc21	inconclusive: 44.1%
CC1(C)Cc2c(cnn2-c2ccccc2)C(=O)/C1=N\NC(=O)c1ccccc1	active: 33.5%

At a glance, part of the list above:
Compound	activation
CN(C)c1oc(-c2cccs2)nc1C#N	inactive: 0.4%
C=CCNC(=O)CN1CCC(n2c(C)nc3cc(C(F)(F)F)ccc32)CC1	active: 58.3%

Continuation:

Compound	activation
CCCCOC(=O)Nc1nc(CC(=O)OCC)cs1	inconclusive: 46.4%
CC(C)(Oc1ccc(Cl)cc1)C(=O)OCC(=O)Nc1ncc(Cl)cc1Cl	inactive: -7.4%
Cc1cc(C)c2c(n1)sc1c(N3CCN(CCO)CC3)ncnc12	inconclusive: 46.9%
CSc1nnc(-c2ccc(NC(=O)CCc3ccccc3)cc2)n1C	inconclusive: 45.1%
O=C(NCc1ccco1)C1CCCN1C(=O)NCc1ccccc1 (stereo not drawn)	inactive: 0.7%
Cn1c(CN2CCOCC2)nnc1SCC(=O)NC1CCCCC1	inconclusive: 40.5%
Nc1nn(S(=O)(=O)c2cccc3nsnc23)cc1-c1ccc(Br)cc1	inactive: 2%
COc1ccc(-c2nc3ccccc3c(=O)n2CCN2CCOCC2)cc1	inactive: -9.1%
O=S(=O)(NCc1ccccc1)c1ccc(S(=O)(=O)N(Cc2ccccn2)C2CCCC2)cc1	inconclusive: 44.2%
O=C(NCc1ccco1)c1sc2cc(F)ccc2c1Cl	active: 43.7%
COCCNS(=O)(=O)c1cc(Br)ccc1OC	active: 35.9%
Clc1cccc(OCCn2cncn2)c1Cl	inconclusive: 43.5%
N=c1c(S(=O)(=O)c2ccccc2)cc2c(=O)n3ccccc3nc2n1CCN1CCOCC1	inconclusive: 42.9%
NC(=O)C1CCN(C(=O)CCCCCn2c(=O)[nH]c3ccsc3c2=O)CC1	inconclusive: 48.1%
COc1ccc(S(=O)(=O)NCC2CCC(C(=O)N3CCC4(CC3)OCCO4)CC2)cc1 (stereo not drawn)	inconclusive: 54.6%
Cc1cc(C(F)(F)F)nc(NCc2cccnc2)n1	inconclusive: 40.1%
CC1OC(Nc2cccc3ccccc23)C(O)C(O)C1O (stereo not drawn)	inconclusive: 36.4%
Cc1c(C(N)=O)c(N)c(C(=O)c2ccccc2)n1-c1ccccc1	inactive: -3.8%
CCOC(=O)C1CCN(C(=O)C2CCN(c3nc4ccc(OC)cc4s3)CC2)CC1	active: 114%
COCc1nc2ccccc2n1CCCOc1ccccc1	inconclusive: 62.1%
CCn1nccc1C(=O)Nc1nccs1	inconclusive: 66.6%
